For this series, the target named is T1, PTK7 (protein tyrosine kinase 7) (UniProt Q13308).
T1 sequence (looked up, limits assumed): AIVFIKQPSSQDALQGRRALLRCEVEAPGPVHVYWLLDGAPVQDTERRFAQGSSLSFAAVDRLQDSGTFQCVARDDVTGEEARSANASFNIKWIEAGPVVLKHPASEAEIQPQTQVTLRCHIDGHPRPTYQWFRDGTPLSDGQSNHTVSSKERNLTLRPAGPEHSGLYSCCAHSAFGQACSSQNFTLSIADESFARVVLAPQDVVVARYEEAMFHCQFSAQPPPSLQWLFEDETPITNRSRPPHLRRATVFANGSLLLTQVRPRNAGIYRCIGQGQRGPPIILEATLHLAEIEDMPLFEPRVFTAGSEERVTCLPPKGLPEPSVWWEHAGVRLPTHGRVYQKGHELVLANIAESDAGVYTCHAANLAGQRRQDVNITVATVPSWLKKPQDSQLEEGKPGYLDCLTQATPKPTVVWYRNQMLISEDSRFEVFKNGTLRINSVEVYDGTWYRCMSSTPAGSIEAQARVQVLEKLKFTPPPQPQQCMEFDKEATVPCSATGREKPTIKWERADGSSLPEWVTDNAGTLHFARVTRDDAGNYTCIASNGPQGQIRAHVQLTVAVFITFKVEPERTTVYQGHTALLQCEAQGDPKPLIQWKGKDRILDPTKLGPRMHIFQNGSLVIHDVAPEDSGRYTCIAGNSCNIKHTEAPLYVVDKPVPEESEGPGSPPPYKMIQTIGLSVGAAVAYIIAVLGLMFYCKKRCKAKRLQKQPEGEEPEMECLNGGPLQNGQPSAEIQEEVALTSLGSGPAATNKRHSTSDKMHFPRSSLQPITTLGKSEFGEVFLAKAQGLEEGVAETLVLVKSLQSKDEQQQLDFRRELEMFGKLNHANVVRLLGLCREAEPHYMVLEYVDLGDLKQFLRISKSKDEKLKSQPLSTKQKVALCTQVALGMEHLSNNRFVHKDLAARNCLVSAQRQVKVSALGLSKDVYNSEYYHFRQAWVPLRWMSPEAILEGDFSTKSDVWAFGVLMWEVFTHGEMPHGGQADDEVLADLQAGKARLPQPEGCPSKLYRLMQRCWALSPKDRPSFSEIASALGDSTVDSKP
Put plainly: flow cytometry. The note with it: 5'-amine converted to N,N-diethyl-N'-acyl phenylene diamine, 37 C, 30-60 min, culture media, protein on the cell surface, protein details: endogenous on Jurkat T leukemia cells, label: Alexa Fluor 488 on capsid interior, single-stranded DNA.

At least one result comes from cells or an extract, where the contact may be indirect. Negatives hold for the conditions tested. Protein sequences can lack the tags named with them. Construct, isoform or probe ends are uncertain for at least one entry.

Consider “ATCTAACTGCTGCGCCGCCGGGAAAATACTGTACGGTTAGA [strand B (sgc8c aptamer)]”, for which, for the setting “coupled to MS2-paF19-N87C capsid exterior (20-40 copies per capsid), capsid-displayed aptamer (11 nM capsids) on Jurkat cells, target assigned as PTK7 from prior work, internalized, co-localizes with LDL”, the binding result was “binds”.
As to “CCCTAGAGTGAGTCGTATGACCCTAGAGTGAGTCGTATGAA [strand C (41-nt randomized control)]”, the binding result (coupled to MS2 capsid exterior, capsid-displayed control strand on Jurkat cells, no increase in mean fluorescence) is reported as “no binding”.
